# Over roughly 33,000 sequences, “E-score (-0.5 to 0.5)” has its median near -0.0034; the highest 2% begin near 0.25. The list shows a part of the results.
# Biological target: T1, Yap3 (UniProt P38749)
# T1 sequence: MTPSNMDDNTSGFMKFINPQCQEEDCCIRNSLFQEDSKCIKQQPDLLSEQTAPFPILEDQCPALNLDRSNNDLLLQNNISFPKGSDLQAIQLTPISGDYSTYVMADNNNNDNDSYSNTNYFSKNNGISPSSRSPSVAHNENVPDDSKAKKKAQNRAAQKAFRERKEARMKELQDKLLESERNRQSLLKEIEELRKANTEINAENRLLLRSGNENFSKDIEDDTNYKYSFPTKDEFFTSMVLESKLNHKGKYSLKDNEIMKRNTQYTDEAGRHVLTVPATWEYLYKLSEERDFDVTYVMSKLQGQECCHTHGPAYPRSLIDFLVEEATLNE
# Test: PBM E-score (8-mer binding enrichment) (E-score (-0.5 to 0.5)); higher = stronger / more preferred TF binding
# Settings: protein concentration: 100 nM; construct: GST-full length
# Procedure: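 Universal 'all 10-mer' protein binding microarrays (Agilent AMADID 015681) probed with GST-tagged S. cerevisiae TFs (full-length or DBD) made by in vitro transcription/translation (PURExpress), about 100-200 nM. Bound TF was detected with fluorescent anti-GST. Each ungapped 8-mer (which stands for itself and its reverse complement) is scored by the PBM enrichment score (E-score), a modified Wilcoxon-Mann-Whitney statistic from -0.5 to +0.5, computed with the Universal PBM Analysis Suite. Scale: above 0.35 generally sequence-specific binding.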
row,Sequence,PBM E-score
1,GCACGAGC,-0.166
2,ACGTTCGG,-0.178
3,AAATCGAA,0.201
4,GATGGTTA,0.0784
5,CAGACAAG,0.0339
6,CAGGCCAG,-0.211
7,CCAGGAGG,-0.19
8,AGGTTGCA,0.2
9,ATCCGAGG,-0.14
10,CAACAGAA,-0.0742
11,ATTAGAAG,0.0855
12,TCCCCCGA,-0.278
13,CATGTCAC,0.0317
14,ATACTGAG,0.142
15,AATCGATG,0.162
16,AAAGGTAC,-0.00041
17,ATGCGAAG,0.0633
18,CCAAAATA,0.211
19,TGCCCCAA,0.00554
20,CGTAGACA,-0.149
21,GAGGTTAC,0.0463
22,CGCCGAGC,0.0512
23,CCTTGTGC,-0.158
24,GAAAATAC,0.0884
25,CAAAGAGC,0.0482

row,Sequence,PBM E-score
1,GGAGCCCC,-0.272
2,CTTTTCAA,0.0821
3,ATTCAGCA,0.076
4,GGCGCCCA,-0.134
5,CTGGTGGA,-0.126
6,AAATCATG,0.194
7,CCGTAAAG,0.0942
8,AAAGGGAA,0.00654
9,GGGGGAAA,-0.024
10,CTAAATGC,-0.0088
11,CAAATACG,0.0291
12,CGGGGTTC,-0.0745
13,CAGTATAC,0.133
14,AACGAATG,0.208
15,GACTTGAA,-0.0464
16,CCCTGAAG,-0.141
17,AGAAACCC,-0.0814
18,AGCAGCCA,-0.0645
19,TAATGTAA,0.312
20,TACCCGCA,0.0998
21,CAATGGAG,-0.14
22,CAAGAAAA,0.195
23,AGTCACCG,-0.052
24,AAAGGGAT,0.121
25,GCTTACAA,0.0448

row,Sequence,PBM E-score
1,AGCCTCGA,-0.0476
2,ACCCGCGG,-0.0614
3,CTCTCCTC,-0.214
4,CGTTCTAC,-0.0659
5,AGAAAGCC,0.0871
6,GACATGGA,0.0543
7,CCTGGAGA,-0.0769
8,CCTCCTCC,-0.313
9,GATGTGAC,-0.116
10,GATCGATC,0.0154
11,CACTCGAG,-0.0738
12,CGGTGGAC,-0.112
13,GCCAGCCA,-0.116
14,ATGTACCA,-0.0322
15,CAACTACA,0.195
16,CCCTGGGA,-0.32
17,CCGCTACA,-0.0599
18,ATTACCAA,0.271
19,AACATGCC,-0.132
20,GCAAGTCC,-0.203
21,CGAGCCGA,-0.0279
22,ATGACTCC,-0.153
23,CTTAGTGA,-0.16
24,AGACCATA,0.156
25,CTCGGGCA,0.0125

# Exported with bars between the fields: part of the list above
row | Sequence | PBM E-score
15 | CAACTACA | 0.195
16 | CCCTGGGA | -0.32
17 | CCGCTACA | -0.0599

# (listing goes on)

row,Sequence,PBM E-score
1,AAGGGCCG,-0.304
2,GGTACCCA,-0.221
3,GGTAGGAA,0.0894
4,ATCAAAAT,0.115
5,AACGTTCA,-0.0892
6,TGCACGCA,-0.166
7,CCAAGAAA,-0.00981
8,AATACTAA,0.174
9,AGGGCATC,-0.281
10,CATGCGTA,0.142
11,CGCTTAAG,-0.099
12,ATCTGATC,-0.0544
13,CCGTCGCC,-0.0429
14,GGTGAATA,0.132
15,AAACAGAC,0.155
16,ACGGACTA,-0.0366
17,TAACCGAA,0.0287
18,CGCTGATC,-0.0569
19,GTGACCTA,-0.219
20,CGTGGTAG,-0.0485
21,AAATCCGA,0.0924
22,AGCTCAGG,-0.0122
23,AGTTTTGG,0.119
24,CCTTGTAC,-0.0735
25,CCCCATAC,-0.103

row,Sequence,PBM E-score
1,CACTATAA,-0.00697
2,ATATACTC,0.126
3,AGCGTATA,0.196
4,AAGCCGGC,0.00759
5,GGAACCAC,-0.0635
6,CATCCAGG,-0.129
7,CCAAGGTC,-0.0728
8,GCGGTCTA,-0.00917
9,AGCAATTG,0.0843
10,ACGCAGCT,-0.0552
11,ACCATAGC,-0.0441
12,AAAAGCAC,-0.0154
13,AAAAATTC,0.0453
14,ACACGTTA,0.0573
15,CACGTGCG,-0.0489
16,CACCTCCA,0.0298
17,CTTGTTGC,0.0294
18,ATTAGCCG,0.105
19,TAACAACA,0.169
20,TATACCGA,0.155
21,CCAGCAAA,0.0803
22,ATTGACAA,-0.0498
23,AAATACTA,0.141
24,AAATTTGC,0.0617
25,CCGCTGTC,-0.0387

row,Sequence,PBM E-score
1,CACGTAAG,0.0981
2,AAGCCTGC,-0.112
3,CGAGTCCC,-0.0887
4,AAACCCAC,0.0806
5,ACATTGTC,0.261
6,ATAGCTGG,-0.153
7,AGGGGCGG,-0.0967
8,ACCTAGCG,-0.0647
9,CAATAGGG,-0.00825
10,CGTATGAC,-0.0555
11,ATAATCAG,0.126
12,CATGGGTA,-0.0959
13,GGCTCGAA,-0.113
14,TCTACCCA,0.0609
15,GATGAAGC,-0.0629
16,GAGGACCC,-0.298
17,GTCTGGTA,0.0119
18,AGATTAAC,0.104
19,ATACCAGG,-0.0411
20,CCACGGGC,-0.149
21,ACCGCAGC,-0.18
22,ACAATTGA,0.219
23,ACGCAGAA,0.131
24,GTTTAAGA,-0.0881
25,CCCGCTCG,-0.262

# For reference, part of the list above:
row,Sequence,PBM E-score
11,ATAATCAG,0.126
12,CATGGGTA,-0.0959
13,GGCTCGAA,-0.113

# (continued)

row,Sequence,PBM E-score
1,AGTTTGAA,0.141
2,CTCTCAGC,-0.122
3,ATATTGTA,0.192
4,CCTTACCG,-0.124
5,AGCTCTAA,0.0114
6,CTCAAGAG,-0.328
7,CACTAATA,0.225
8,AGACACCT,-0.0593
9,AGCATGCA,0.00046
10,ATAGTTAG,0.159
11,TAGGATGA,0.196
12,GTATTGTA,0.174
13,ATGTAGAC,-0.124
14,AAGCCAAG,-0.0751
15,CATCGATG,0.00555
16,ATAGTACG,0.176
17,CAATGATC,-0.0423
18,ATTGGACA,0.188
19,CACACGGA,-0.0988
20,GGGCTACC,-0.291
21,CTGCGACA,0.109
22,CTAACACA,0.146

# — the supplement of paper PMC3334620
